The target of one data set is T1, Lm GlnR(1-87) (UniProt L8DSZ4).
T1 sequence (looked up): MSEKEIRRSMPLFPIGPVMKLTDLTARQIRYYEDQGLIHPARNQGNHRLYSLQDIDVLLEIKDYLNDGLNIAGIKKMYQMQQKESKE
The data set can be described thus: X-ray crystallography (3.45 A). To be noted: 10 mM MgCl2, pH 6.5; recombinant protein; residues 1-87; protein details: N-terminal His removed by thrombin.

The target in data set [1] is T2, Sa GlnR(1-87) (UniProt Q53687).
T2 sequence (looked up): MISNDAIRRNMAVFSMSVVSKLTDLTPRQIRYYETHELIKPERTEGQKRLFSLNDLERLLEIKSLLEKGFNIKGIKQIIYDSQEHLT
In words: X-ray crystallography (2.35 A). The conditions noted are these: 0.15 M calcium acetate, pH 6.5; recombinant protein; residues 1-87.

Data set [2] deals with T2, Sa GlnR(1-87). The data set can be described thus: fluorescence polarization. The conditions noted are these: 5 mM Mg2+, FP: 25 mM Tris pH 7.5, 100 mM NaCl, 5 mM MgCl2, 1 nM fluoresceinated DNA, temperature not stated, recombinant protein, residues 1-87. On the technique in general: In fluorescence polarisation assays a small probe gives low polarisation when free and higher when bound to something large.

The target of a further data set is T3, Sa GlnR full length (UniProt Q53687).
T3 sequence (looked up): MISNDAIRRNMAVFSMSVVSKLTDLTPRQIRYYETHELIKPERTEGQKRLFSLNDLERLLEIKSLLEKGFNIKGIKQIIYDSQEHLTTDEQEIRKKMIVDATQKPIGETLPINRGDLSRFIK
In words: fluorescence polarization. The conditions noted are these: 5 mM Mg2+; FP: 25 mM Tris pH 7.5, 100 mM NaCl, 5 mM MgCl2, 1 nM fluoresceinated DNA; temperature not stated; recombinant protein; residues 1-122; protein details: N-terminal His (pET15b).

For at least one entry, the source does not settle the construct or the ends of the probe. Where a protein sequence is shown, tags need not be part of it.

For two sequences, binding result and Kd results are on record in article PMC9249791, “Molecular dissection of the glutamine synthetase-GlnR nitrogen regulatory circuitry in Gram-positive bacteria” (Nature Communications, 2022).

One may read the Kd as the constant that tells how readily two partners part at equilibrium.

“CGTGTCAGATAATCTGACACG (double strand) [21-mer glnR operator, crystallization]”: the binding result in the data set with Lm GlnR(1-87) and in the data set with Sa GlnR(1-87) [1] was “binds” in each case.
“CGTGTCAGATAATCTGACACG (double strand) [21-mer glnR operator, fluoresceinated]”: the values for the Kd with Sa GlnR(1-87) [2] (comparison series with K48 mutants), in the data set with Sa GlnR(1-87) [2] and with Sa GlnR full length were 9.9 nM, 9.9 nM and 75 nM, respectively.
